According to patent US20100022481A1, “Drug Carriers, Their Synthesis, and Methods of Use Thereof” (priority 2006, published 2010):

Tested on: rat mandible
Experiment: Bilateral rat mandible model, bone growth and inflammation, histomorphometry
Format: in vivo, Female Sprague Dawley rats
Conditions: equivalent amounts of ALN: 50 μl of 400 mg/mL ALN-CD or 50 μl of 81 mg/ml ALN

## NCCCC(O)(P(=O)(O)O)P(=O)(O)O [alendronate]
  new bone width adjacent to where the formulations were injected: 0.14 ± 0.05 mm
